{"source": "patent US20010019832A1", "about": "“Methods for identification using U0126” (priority 2000, published 2001)", "key": {"L6 cells": {"system": "L6 cells", "test": "Glucose uptake rate in L6 cells", "type": "cell-based, rat", "settings": "wortmannin 100 nM, 20 h", "experimental": "(§1) Glucose uptake was determined as described by Hundal et al. (1994) Biochem. J. 297: 289-295. Briefly, after incubation with insulin for one hour, cell monolayers were rinsed with glucose-free PBS. Glucose uptake was quantified by incubating the cells in the presence of 1 μCi/ml ^3H-2-deoxy-glucose in PBS for 8 min. Uptake of 2-deoxy-glucose was terminated by rapidly aspirating the medium, followed by two successive washes of cell monolayers with ice cold PBS. The cells were lysed in 0.5 M NaOH, followed by liquid scintillation counting. Rates of transport were normalized for protein content in each well.\nGlucose uptake rate in L6 cells, in the presence of 5 mM glucose, was determined. The cells were incubated in serum-free medium supplemented with U0126 (10 μM), PD98059 (10 μM) or wortmannin (100 nM) for 20 h. Insulin (176 nM) was added 1 h before the determination of glucose uptake rate. Glucose uptake was determined as described above."}, "SH-SY5Y cells": {"system": "SH-SY5Y cells", "test": "Glucose uptake rate in SH-SY5Y cells", "type": "cell-based, human", "settings": "wortmannin 100 nM, 1 h", "experimental": "as §1\nGlucose uptake rate in SH-SY5Y cells in the presence of 5 mM glucose was determined. The cells were incubated in serum-free medium over night. Approximately 20 h later U0126 (10 μM), wortmannin (100 nM) or insulin (176 nM) were added, 1 h before the determination of glucose uptake rate."}}, "note": "At least one compound was matched to its structure with a doubt left.", "data": [{"compound": "COC[C@H]1OC(=O)c2coc3c2[C@@]1(C)C1=C(C3=O)[C@@H]2CCC(=O)[C@@]2(C)C[C@H]1OC(C)=O", "note": "[Wortmannin]", "values": [{"measurement": "Effect on U0126-induced glucose uptake", "setting": "L6 cells", "value": "inhibited the effect of U0126"}, {"measurement": "Effect on U0126- and insulin-induced glucose uptake", "setting": "SH-SY5Y cells", "value": "inhibited the effect of U0126 and insulin"}]}]}
